# Source: doi:10.1101/2025.11.07.687155
# Sequences of proteins named here, by UniProt entry; tags and fusion partners are left off. Residues count along the entry.
# UniProt O14656, residues 21-332: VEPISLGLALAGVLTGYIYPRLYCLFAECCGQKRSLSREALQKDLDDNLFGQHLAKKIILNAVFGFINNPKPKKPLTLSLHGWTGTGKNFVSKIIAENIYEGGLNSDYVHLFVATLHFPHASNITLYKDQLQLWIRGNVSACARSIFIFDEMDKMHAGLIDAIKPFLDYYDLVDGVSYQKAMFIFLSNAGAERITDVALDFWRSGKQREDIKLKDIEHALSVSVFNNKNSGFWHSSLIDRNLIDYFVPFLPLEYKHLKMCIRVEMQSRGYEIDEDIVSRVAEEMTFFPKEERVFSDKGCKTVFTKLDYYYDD
# No constants are given. Whether binding was seen depends on the method and setting. In cells and extracts the contact can be indirect. A yes stands for co-enrichment or nearness to the bait. Other partners may have been found.
# B1: chloride channel CLIC-like protein 1 (CLCC1) (protein, UniProt Q96S66 19-551)
# chain: HDDDWIDPTDMLNYDAASGTMRKSQAKYGISGEKDVSPDLSCADEISECYHKLDSLTYKIDECEKKKREDYESQSNPVFRRYLNKILIEAGKLGLPDENKGDMHYDAEIILKRETLLEIQKFLNGEDWKPGALDDALSDILINFKFHDFETWKWRFEDSFGVDPYNVLMVLLCLLCIVVLVATELWTYVRWYTQLRRVLIISFLFSLGWNWMYLYKLAFAQHQAEVAKMEPLNNVCAKKMDWTGSIWEWFRSSWTYKDDPCQKYYELLLVNPIWLVPPTKALAVTFTTFVTEPLKHIGKGTGEFIKALMKEIPALLHLPVLIIMALAILSFCYGAGKSVHVLRHIGGPESEPPQALRPRDRRRQEEIDYRPDGGAGDADFHYRGQMGPTEQGPYAKTYEGRREILRERDVDLRFQTGNKSPEVLRAFDVPDAEAREHPTVVPSHKSPVLDTKPKETGGILGEGTPKESSTESSQSAKPVSGQDTSGNTEGSPAAEKAQLKSEAAGSPDQGSTYSPARGVAGPRGQDPVSSPCG
# Target: Torsin1A-TurboID-V5 (human) (UniProt O14656)
# Test: proximity labelling
binder,measurement,value
B1,binding,binds
